From US6936708, “Expression of Alfin 1 and methods for producing transgenic plants having increased root growth and root specific gene activation” (Arizona Board of Regents, acting for and on behalf of …) come the findings set out here.

For at least one entry, the source does not settle the construct or the ends of the probe. Where a protein sequence is shown, tags need not be part of it.

For the data set, the target named is T1, Alfin1 (Medicago sativa) (UniProt Q40359).
T1 sequence (looked up, limits assumed): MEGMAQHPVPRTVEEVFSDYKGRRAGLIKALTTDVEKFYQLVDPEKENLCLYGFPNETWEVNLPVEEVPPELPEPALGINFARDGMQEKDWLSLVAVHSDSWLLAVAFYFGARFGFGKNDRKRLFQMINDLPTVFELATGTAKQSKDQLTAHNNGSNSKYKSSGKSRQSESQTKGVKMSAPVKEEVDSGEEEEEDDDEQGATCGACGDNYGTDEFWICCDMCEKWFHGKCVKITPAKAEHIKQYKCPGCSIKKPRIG
In words: binding assay. Particulars: DNA sequence that binds Alfin1 in vitro; selection method not given; purified recombinant protein.

Take “GACGGCTGGGGGAAAGTGAGCGGTGGCCC (double strand) [Alfin1 binding sequence SEQ 3]”: the binding result is recorded as “binds”.
